# Assay results taken from PubChem BioAssay AID493014 (National Center for Advancing Translational Sciences (NCATS), 2011).
# In all, about 340,000 compounds went through this assay and about 170 (0.05%) were called active. Inconclusive means that the source gave no clear call. Such entries were picked first, then a sample of the others. Calls come from the whole dose curve; as a rule, active = well fitted inhibition curve with a large enough effect in the signal ratio, with a control signal flat (not every such curve was filed as active); inconclusive = small, poorly fitted or top-dose-only effect, or effect the other way, or a change in a side signal; inactive = flat fitted curve, though single readings scatter; the % refers to the signal ratio. Potencies beside an inconclusive call are fits to weak or partial responses and may not hold up.
# Assay: qHTS Assay to Find Inhibitors of Chronic Active B-Cell Receptor Signaling;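 for activity change, negative = inhibition: plate controls were basal doxycycline-induced cells for no effect and cells given 10 µM MG132 for full effect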
# Details: ABC-DLBCL IkBa-CBG/CBR reporter, luminescence ratio (green luciferase fused to IkBa over red control in TMD8 lymphoma cells), 4 h; activity change, negative = inhibition: at 46.1 µM (top of the series)
# Summary of the method: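 Doxycycline induced both beetle luciferases in TMD8 lymphoma cells; IKK-driven degradation limits the IkappaBalpha-fused green signal, while red luminescence normalises for cell number and nonspecific effects. Compounds tested up to 46 uM, 4 hrs.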
# Potency is the fitted concentration of half-maximal effect.
Compound,Potency,"activity change, negative = inhibition"
CCOc1ccccc1NC(=O)CSc1nnc2[nH]c(=O)cc(C)n12,"inconclusive: 15.8 µM [falling, single point]",–
COc1ccc(N2CCN(C(=O)c3cc(-c4cccs4)nc4ccccc34)CC2)cc1,–,inactive
Cc1ccc(N=Cc2c(C)[nH]n(-c3nc4ccccc4[nH]3)c2=O)cc1,"inconclusive: 7.31 µM [falling, partial curve]",–
O=c1[nH]cc(I)cc1I,"inconclusive: 17.8 µM [falling, partial curve, poor fit]",–
CSc1nc2sc3c(c2c(=S)[nH]1)CC(C)(C)OC3,–,inconclusive: 0.174%
O=C(COc1ccc(Br)cc1)Nc1nc(-c2cccnc2)cs1,–,inconclusive: 2.98%
Cc1ccc(OCc2nc(-c3ccccc3)no2)c(C)c1,–,inconclusive: -0.554%
O=C(NCc1cccs1)C1CC(c2ccc(Cl)cc2)=NO1 (centres undefined),"inconclusive: 3.55 µM [falling, full curve]",–
CC(C)c1ccc(CN2CCC(C(=O)NCc3cccnc3)CC2)cc1,–,inactive
CCOC(=O)CCCNC(=O)CCNC(=O)c1ccc(OCC(C)C)cc1,"inconclusive: 3.16 µM [falling, full curve]",–
O=C(CSc1nnc(-c2ccc(O)cc2)o1)N1CCOCC1,–,inconclusive: -11.8%
COC(=O)CCSCC(=O)N1N=C(c2ccc(Br)cc2)CC1c1cccc(OC)c1OC (centres undefined),"inconclusive: 17.8 µM [falling, partial curve, poor fit]",–
COc1ccccc1NC(=O)CSc1nc2[nH]ncc2c(=O)[nH]1,–,inconclusive: -0.512%
Cc1cc(C)c(O)c(-c2cc(C(=O)NCCc3ccc(S(N)(=O)=O)cc3)[nH]n2)c1,–,inconclusive: -26%
CC(=O)Oc1ccc(N2C(=O)C3C(C2=O)C2(C)C=CC3(C)O2)cc1 (centres undefined),–,inconclusive: 4.44%
COc1cccc(CNC(=O)CN2CCC(c3nc4ccc(C)cc4[nH]3)CC2)c1,–,inconclusive: -11.6%
CC(C)n1c(=O)[nH][nH]c1=S,–,inactive
N#C/C(=C\c1c[nH]c2ccccc12)C(=O)NC1CCCC1,–,inactive
COc1ccc(Nc2nc(NCCO)nc(OC)n2)cc1,–,inactive
Cc1cc(-c2n[nH]c(=S)n2/N=C/c2c[nH]c3ccccc23)n[nH]1,–,inconclusive: -3.36%
CCOc1ccc(/C=C2\CCC(C3CCCC3)C2=O)cc1OC (centres undefined),–,inconclusive: 9.16%
O=C(COC(=O)C1CCCO1)Nc1nc(-c2ccc(F)cc2)cs1 (centres undefined),–,inconclusive: 6.51%
COc1ccc(-c2nnn(-c3cc(Cl)cc(Cl)c3)c2N)cc1,"inconclusive: 35.5 µM [falling, single point]",–
C=C(C)c1ccc(C(C)(C)NC(=O)NCc2ccco2)cc1,–,inconclusive: 12.8%
Cn1ncc2c(Nc3cc(C(F)(F)F)ccc3Cl)ncnc21,–,inactive
O=C(NC(=S)Nc1ccc2nc[nH]c2c1)c1ccccc1,"inconclusive: 12.6 µM [falling, partial curve]",–
COc1ccc2[nH]c3c(c2c1)CCNC3C1CC=C(C)CC1 (centres undefined),"inconclusive: 25.1 µM [falling, single point]",–

Compound,Potency,"activity change, negative = inhibition"
CN(C)CCCN(C(=O)COc1ccc(Cl)cc1)c1nc2cc3c(cc2s1)OCCO3,"inconclusive: 5.8 µM [falling, full curve]",–
O=C(c1ccc2c(=O)n3c(nc2c1)CCCCC3)N1CCN(Cc2ccccc2)CC1,–,inconclusive: 0.125%
CCCCc1cc2c(s1)CCCC/C2=N/O,–,inconclusive: 6.82%
COc1cccc(C2=CC(c3cc(OC)ccc3OC)n3nnnc3N2)c1 (centres undefined),"inconclusive: 29.1 µM [falling, single point]",–
COC(=O)c1ccccc1NC(=O)CN(c1ccc(C)cc1)S(C)(=O)=O,–,inconclusive: -2.68%
CCC(=O)N/N=C(\C)CC(=O)Nc1ccccc1-c1ccccc1,–,inconclusive: -9.9%
Cc1ccc2oc(-c3cccc(N)c3)nc2c1,"inconclusive: 22.4 µM [falling, partial curve]",–
COc1ccc(-c2cc(C(=O)Nc3cc(S(=O)(=O)N4CCOCC4)ccc3N3CCOCC3)c3ccccc3n2)cc1,–,inconclusive: 0.0573%
O=C(CSc1nc(-c2ccccc2)nn1C(=O)c1ccccc1)Nc1cccc([N+](=O)[O-])c1,"inconclusive: 15.8 µM [falling, partial curve]",–
Cc1nn(CCC(=O)NNC(=S)Nc2ccc(F)cc2)c(C)c1[N+](=O)[O-],–,inactive
Cc1oc(-c2ccccc2Cl)nc1CN(C)C(C)c1ccon1 (centres undefined),"inconclusive: 11.2 µM [falling, partial curve]",–
CCOC(=O)C1=C(C)NC2=C(C1c1ccc([N+](=O)[O-])cc1)S(=O)(=O)c1ccccc12 (centres undefined),–,inconclusive: -4.23%
O=C(Cn1cnc2c(oc3ccccc32)c1=O)NCC1CCCO1 (centres undefined),–,inactive
COc1cc(NC(=O)c2ccc(NS(=O)(=O)c3c(C)noc3C)cc2)cc(OC)c1,–,inconclusive: 1.7%
COc1cc(C(=O)Nc2cccc(-c3nncn3C)c2)cc(OC)c1OC,–,inconclusive: -22.6%
CCOC(=O)c1cnc2c(CC)cccc2c1NCCN1CCOCC1,–,inconclusive: 0.535%
COc1ccc(-c2nnc(N3CCOCC3)c3ccccc23)cc1,"inconclusive: 12.6 µM [falling, partial curve, poor fit]",–
Cc1cc(/C=C2\NC(=S)N(C)C2=O)ccc1N1CCCC1,–,inactive
CCOC(=O)c1sc(N)c(C(=O)Nc2ccccc2)c1C,"inconclusive: 35.5 µM [falling, single point]",–
CCOc1ccc(CCNC(=O)c2ccc(OCc3c(C)noc3C)cc2)cc1OCC,–,inconclusive: -3.95%
COc1cc(OC)cc(C(=O)NC(=S)NNC(=O)c2cnccn2)c1,–,inactive
CCOc1ccc(C(=O)NCCC(=O)N2CCC3(CC2)NCCc2[nH]cnc23)cc1OCC,–,inactive
CCOC(=O)C(=O)Nc1ccc(S(=O)(=O)Nc2nccs2)cc1,"inconclusive: 11.2 µM [falling, partial curve, poor fit]",–
CC1CCc2c(C(=O)Nc3ccccn3)csc2C1 (centres undefined),–,inconclusive: 1.55%
O=C(Cn1cnc2c(nnn2Cc2ccc(F)cc2)c1=O)Nc1ccc2c(c1)OCCO2,–,inactive
CCOC(=O)N/N=C/c1c(C)nn(-c2cccc(C(F)(F)F)c2)c1Cl,"inconclusive: 29.1 µM [falling, partial curve, poor fit]",–
COCCN(C(=O)Cn1c(C(F)(F)F)nc2ccccc21)c1c(N)n(Cc2ccccc2)c(=O)[nH]c1=O,–,inconclusive: -3.3%

Compound,Potency,"activity change, negative = inhibition"
CC(=O)OCCCNc1cc(Sc2ccc(C)cc2)c2nonc2c1[N+](=O)[O-],–,inactive
CCN(CC)CC(=O)Nc1ccc(-c2nc3cc(NC(=O)CN(CC)CC)ccc3o2)cc1,–,inconclusive: 14%
N#CCC(=O)NN=C1CCCCCCCCCCC1,–,inconclusive: -3.01%
Cc1noc(C)c1CSCC(=O)Nc1nc2ccc(Oc3ccccc3)cc2s1,–,inconclusive: -13.2%
CCN(CC)CCN1C(=O)c2cccc3cc(N)cc(c23)C1=O,–,inconclusive: -2.02%
CC(=O)Nc1cccc(/C(C)=N/NC(=O)c2ccccc2Cl)c1,"inconclusive: 12.6 µM [falling, partial curve]",–
CC(C)OC(=O)Cn1nnc(-c2ccccc2)n1,"inconclusive: 1.16 µM [rising, full curve, poor fit]",–
COc1ccc(OC)c(C2=NS(=O)(=O)N(C)C(C(=O)NCc3cccs3)=C2)c1,–,inconclusive: -9.11%
CCOc1ccc(-c2c[n+]3c(n2-c2ccccc2)CCCCC3)cc1,–,inactive
C/C(CC(=O)Nc1ccc(Cl)cc1Cl)=N\NC(=O)c1ccncc1,"inconclusive: 14.1 µM [falling, single point]",–
O=C(CSc1nncs1)Nc1ccc(N2CCCCC2)cc1,–,inactive
O=C1Nc2ccccc2S/C1=C/NCc1ccccc1Cl,"inconclusive: 31.6 µM [rising, partial curve]",–
Cc1ccccc1Oc1nc2c(C)cccn2c(=O)c1/C=C(\C#N)C(=O)NC1CCS(=O)(=O)C1 (centres undefined),–,inconclusive: -22.6%
CCOC(=O)C1(CCCc2ccccc2)CCN(C2CCN(C(C)=O)CC2)CC1,–,inactive
CC(OC(=O)/C=C/c1ccc2ccccc2n1)C(=O)NCc1ccccc1 (centres undefined),–,inconclusive: -6.56%
Cc1cc(Cl)ccc1N=c1ssnc1Cl,"inconclusive: 29.1 µM [falling, single point]",–
CC(C)NC(=O)[C@H](CSCc1ccccc1)N1Cc2ccccc2C1=O,–,inactive
CC(C)(C)NC(=O)CN(C(=O)CNS(=O)(=O)c1ccccc1)c1ccc2c(c1)OCCO2,–,inconclusive: -12%
COc1ccc([N+](=O)[O-])cc1NC(=S)NC(NC(=O)C(c1ccccc1)c1ccccc1)C(Cl)(Cl)Cl (centres undefined),–,inconclusive: 2.05%
CC(=O)COC(=O)CNC(=O)c1ccc(Br)cc1,–,inconclusive: -12%
CC(C)Cc1nc(SCc2cccnc2)c2c(=O)n(C)c(=O)n(C)c2n1,–,inconclusive: 2.02%
CCOC(=O)c1ccc(NC(=O)/C=C/c2cccs2)cc1,"inconclusive: 1 µM [falling, full curve, poor fit]",–
O=C(Nc1scc(-c2ccccc2)c1C(=O)O)c1ccccc1Cl,"inconclusive: 17.8 µM [falling, single point]",–
COc1cc(-c2nc3ccc(C)cn3c2Nc2ccc3c(c2)OCCO3)ccc1O,"inconclusive: 20.6 µM [falling, single point]",–
Cc1cccc(N(C(=O)c2snc(C(N)=O)c2N)C(C(=O)NC2CCCC2)c2ccncc2)c1 (centres undefined),–,inconclusive: 15.9%

# Some of the entries above in a different format.
Compound	Potency	activity change, negative = inhibition
O=C(Nc1scc(-c2ccccc2)c1C(=O)O)c1ccccc1Cl	inconclusive: 17.8 µM [falling, single point]	–
COc1cc(-c2nc3ccc(C)cn3c2Nc2ccc3c(c2)OCCO3)ccc1O	inconclusive: 20.6 µM [falling, single point]	–
Cc1cccc(N(C(=O)c2snc(C(N)=O)c2N)C(C(=O)NC2CCCC2)c2ccncc2)c1 (centres undefined)	–	inconclusive: 15.9%
